Data taken from paper PMC6365383.
No constants are given. Whether binding was seen depends on the method and setting. Binding seen in cells or lysates may run through a third protein. Some results given as binding are weak or reduced against the parent protein; the word gives no strength.

Chains of the proteins cited; added tags and fusions are not shown.
UniProt Q16665: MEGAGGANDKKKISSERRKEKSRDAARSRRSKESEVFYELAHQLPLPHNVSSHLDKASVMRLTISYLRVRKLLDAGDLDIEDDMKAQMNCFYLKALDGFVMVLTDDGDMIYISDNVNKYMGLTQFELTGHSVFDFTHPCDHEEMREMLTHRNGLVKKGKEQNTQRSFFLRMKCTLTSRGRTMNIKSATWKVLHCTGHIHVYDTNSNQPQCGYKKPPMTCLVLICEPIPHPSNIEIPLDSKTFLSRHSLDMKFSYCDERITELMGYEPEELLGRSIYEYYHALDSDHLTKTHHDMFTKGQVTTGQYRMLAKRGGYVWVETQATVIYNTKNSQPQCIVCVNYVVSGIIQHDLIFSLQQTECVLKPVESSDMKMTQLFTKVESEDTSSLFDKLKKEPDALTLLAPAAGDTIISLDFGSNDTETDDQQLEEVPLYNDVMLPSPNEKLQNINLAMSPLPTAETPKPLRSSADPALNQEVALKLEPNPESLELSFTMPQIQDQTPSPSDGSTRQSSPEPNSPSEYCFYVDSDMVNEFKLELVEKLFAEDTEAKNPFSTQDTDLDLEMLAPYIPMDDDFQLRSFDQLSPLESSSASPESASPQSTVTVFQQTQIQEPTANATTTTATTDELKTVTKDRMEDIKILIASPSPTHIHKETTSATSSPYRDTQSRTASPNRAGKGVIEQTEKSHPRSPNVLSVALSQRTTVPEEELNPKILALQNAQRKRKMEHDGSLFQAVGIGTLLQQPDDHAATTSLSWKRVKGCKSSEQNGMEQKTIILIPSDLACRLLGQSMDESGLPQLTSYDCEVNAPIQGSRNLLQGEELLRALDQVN
UniProt Q96DX7: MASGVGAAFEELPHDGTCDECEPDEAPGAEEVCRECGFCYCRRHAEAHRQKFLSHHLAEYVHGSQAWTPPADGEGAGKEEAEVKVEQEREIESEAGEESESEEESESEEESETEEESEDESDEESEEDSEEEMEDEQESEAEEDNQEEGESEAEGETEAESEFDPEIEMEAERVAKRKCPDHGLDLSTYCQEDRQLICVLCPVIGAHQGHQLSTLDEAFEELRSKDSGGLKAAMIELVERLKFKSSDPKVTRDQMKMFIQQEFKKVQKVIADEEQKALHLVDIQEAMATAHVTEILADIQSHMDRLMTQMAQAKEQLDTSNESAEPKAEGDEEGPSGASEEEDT

What was measured:
[1] = molecular target: hypoxia inducible factor-1α (HIF-1α), endogenous (human (endogenous in RPMI, U266 and 293T)) (UniProt Q16665); assay: co-IP; 293T cells cultured in a hypoxia condition; endogenous proteins (Supplementary Figure 10d)
[2] = molecular target: hypoxia inducible factor-1α (HIF-1α), endogenous (human (endogenous in RPMI, U266 and 293T)) (UniProt Q16665); assay: co-IP; TRIM44^OE RPMI, U266 and 293T cells cultured in hypoxia for 4 h; immunoprecipitated with IgG or HIF-1α antibodies, immunoblotted with TRIM44 or HIF-1α antibodies
[3] = molecular target: HIF-1α in 293T cells with exogenous TRIM44 (Supplementary Figure 10c) (UniProt Q16665); assay: co-IP; 293T cells with exogenous TRIM44 expression (Supplementary Figure 10c); details not shown

**Q.** Which binding [1] does the source give for “TRIM44, endogenous in 293T cells (from UniProt Q96DX7 1-344)” here?
**A.** binds

**Q.** For “tripartite motif containing 44 (TRIM44), overexpressed by lentivirus (TRIM44^OE cells) (from UniProt Q96DX7 1-344)”, which binding [2] is on record?
**A.** binds

**Q.** With “exogenous TRIM44 expressed in 293T cells (from UniProt Q96DX7 1-344)” as the substance, how does the binding [3] read?
**A.** binds
